Some of these results come from one statement about several compounds together.
Experiments:
Type in all cases: in vivo
[1] = system: Botrytics cinerea; assay: Test on the controlling effect against gray mold of cucumber plant; details: cucumber plant (Suyou), foliar application, active-ingredient concentration 200 ppm, application rate 50 mL, 7 days after inoculation
[2] = system: Blumeria graminis f. sp. hordei; assay: Test on the controlling effect against powdery mildew of barley plant; details: barley plant (Kantoh No. 6), foliar application, application rate 50 mL, 7 days after inoculation
Excerpt: Equation (1): Protective value (%)=A/B×100 (1) where: • A; [(Ratio of the afflicted spotted leaf surface area in non-treated section to the total leaf surface area)−(Ratio of the afflicted spotted leaf surface area in treated section to the total leaf surface area)] • B; (Ratio of the afflicted spotted leaf surface area in non-treated section to the total leaf surface area) Criteria of Judgment: 0: Less than […] in protective value 1: 10 to 19% in protective value 2: 20 to 29% in protective value 3: 30 to 39% in protective value 4: 40 to 49% in protective value 5: 50 to 59% in protective value 6: 60 to 69% in protective value 7: 70 to 79% in protective value 8: 80 to 89% in protective value 9: 90 to 99% in protective value 10: 100% in protective value A one-leaf aged barley plant (the cultivar: Kantoh No. 6) raised as a seedling in a pot of 6 cm in diameter was subjected to foliar application with a diluted emulsion of the emulsifiable concentrate of the compound of the present invention prepared in accordance with Agrochemical Formulation Example 1, which diluted emulsion was produced by diluting the concentrate with water to the specifically determined volume. On the following day after the application, the barley plant was inoculated by sprinkling with spores as obtained from barley plants afflicted with the causal fungus of powdery mildew (Blumeria graminis f. sp. hordei), and maintained at 20° C. under humid conditions. Seven days after the inoculation, the controlling effect was assessed according the criteria of judgment as set forth in Test Example 1.

[3] = system: Venturia inaequalis; assay: Test on the controlling effect against apple tree scab; details: apple seedling (Ohrin), foliar application, application rate 50 mL, 14 days after inoculation
[4] = system: Puccinia recondita; assay: Test on the controlling effect against brown leaf rust of wheat plant; details: wheat plant (Hokushin), foliar application, application rate 50 mL, 7 days after inoculation
[5] = active-ingredient concentration 200 ppm
[6] = active-ingredient concentration 50 ppm
[7] = active-ingredient concentration 10 ppm

Row | Structure (SMILES) | controlling effect assessed according to the criteria of judgment [2, 5] | controlling effect assessed according to the criteria of judgment (protective value) [3, 6] | controlling effect assessed according to the criteria of judgment [4, 5] | other results
1 | O=C(Nc1ccccc1-c1cccc(Cl)c1)c1nccnc1Cl [1-3] |  |  |  | controlling effect assessed according to the criteria of judgment (protective value) [1]: 10 (100% in protective value)
2 | O=C(Nc1ccccc1-c1ccc(Cl)cc1)c1nccnc1Cl [1-6] | 10 (100% in protective value) |  |  | controlling effect assessed according to the criteria of judgment (protective value) [1]: 10 (100% in protective value)
3 | O=C(Nc1ccccc1-c1ccc(Br)cc1)c1nccnc1Cl [1-7] |  | 10 (100% in protective value) |  | 
4 | Cc1ccc(-c2ccccc2NC(=O)c2nccnc2Cl)cc1 [1-8] |  |  |  | controlling effect assessed according to the criteria of judgment (protective value) [1]: 10 (100% in protective value)
5 | O=C(Nc1ccccc1-c1ccc(C(F)(F)F)cc1)c1nccnc1Cl [1-11] | 10 (100% in protective value) |  |  | controlling effect assessed according to the criteria of judgment (protective value) [1]: 10 (100% in protective value)
6 | N#Cc1ccc(-c2ccccc2NC(=O)c2nccnc2Cl)cc1 [1-17] |  |  |  | controlling effect assessed according to the criteria of judgment (protective value) [1]: 10 (100% in protective value)
7 | O=C(Nc1ccccc1-c1ccc(Cl)c(F)c1)c1nccnc1Cl [1-23] |  |  |  | controlling effect assessed according to the criteria of judgment [4, 6]: 10 (100% in protective value); controlling effect assessed according to the criteria of judgment [2, 6]: 10 (100% in protective value)
8 | O=C(Nc1ccccc1-c1cc(Cl)cc(Cl)c1)c1nccnc1Cl [1-34] |  | 10 (100% in protective value) |  | 
9 | CCOC(=O)c1ccc(-c2ccccc2NC(=O)c2nccnc2Cl)cc1Cl [1-37] | 10 (100% in protective value) | 10 (100% in protective value) | 10 (100% in protective value) | 
10 | O=C(Nc1ccccc1-c1ccc(Cl)cc1Cl)c1nccnc1Cl [1-40] |  |  |  | controlling effect assessed according to the criteria of judgment (protective value) [1]: 10 (100% in protective value)
11 | O=C(Nc1ccccc1-c1ccc(Oc2ccccc2)cc1)c1nccnc1Cl [1-44] |  | 10 (100% in protective value) | 10 (100% in protective value) | 
12 | Cc1nccnc1C(=O)Nc1ccccc1-c1ccc(C(F)(F)F)cc1 [2-11] |  | 10 (100% in protective value) |  | 
13 | COc1ccc(-c2ccccc2NC(=O)c2nccnc2C)cc1 [2-12] | 10 (100% in protective value) |  |  | 
14 | Cc1nccnc1C(=O)Nc1ccccc1-c1ccc(Cl)c(Cl)c1 [2-22] | 10 (100% in protective value) |  | 10 (100% in protective value) | 
15 | Cc1nccnc1C(=O)Nc1ccccc1-c1ccc(Cl)cc1F [2-36] | 10 (100% in protective value) | 10 (100% in protective value) | 10 (100% in protective value) | 
16 | CCOC(=O)c1ccc(-c2ccccc2NC(=O)c2nccnc2C)cc1Cl [2-37] |  | 10 (100% in protective value) |  | 
17 | Cc1cc(OC(F)(F)F)ccc1-c1ccccc1NC(=O)c1nccnc1C [2-38] | 10 (100% in protective value) |  | 10 (100% in protective value) | 
18 | CC(C)(C)c1ccc(-c2ccccc2NC(=O)c2nccnc2C(F)(F)F)cc1 [3-10] | 10 (100% in protective value) |  | 10 (100% in protective value) | controlling effect assessed according to the criteria of judgment [2, 6]: 10 (100% in protective value)
19 | O=C(Nc1ccccc1-c1ccc(Cl)c(C(F)(F)F)c1)c1nccnc1C(F)(F)F [3-29] | 10 (100% in protective value) |  | 10 (100% in protective value) | controlling effect assessed according to the criteria of judgment [4, 6]: 10 (100% in protective value); controlling effect assessed according to the criteria of judgment [2, 6]: 10 (100% in protective value)
20 | O=C(Nc1ccccc1-c1cc(C(F)(F)F)cc(C(F)(F)F)c1)c1nccnc1C(F)(F)F [3-35] |  |  | 10 (100% in protective value) | controlling effect assessed according to the criteria of judgment [4, 6]: 10 (100% in protective value)
21 | Cc1cc(OC(F)(F)F)ccc1-c1ccccc1NC(=O)c1nccnc1C(F)(F)F [3-38] | 10 (100% in protective value) |  | 10 (100% in protective value) | controlling effect assessed according to the criteria of judgment [4, 6]: 10 (100% in protective value); controlling effect assessed according to the criteria of judgment [2, 6]: 10 (100% in protective value)
22 | O=C(Nc1ccccc1-c1ccc(Oc2ccccc2)cc1)c1nccnc1C(F)(F)F [3-44] |  | 10 (100% in protective value) | 10 (100% in protective value) | controlling effect assessed according to the criteria of judgment (protective value) [3, 7]: 10 (100% in protective value)
23 | O=C(Nc1ccccc1-c1ccc(Oc2ncc(C(F)(F)F)cc2Cl)cc1)c1nccnc1C(F)(F)F [3-47] | 10 (100% in protective value) | 10 (100% in protective value) | 10 (100% in protective value) | controlling effect assessed according to the criteria of judgment [4, 6]: 10 (100% in protective value); controlling effect assessed according to the criteria of judgment (protective value) [3, 7]: 10 (100% in protective value); controlling effect assessed according to the criteria of judgment [2, 6]: 10 (100% in protective value)
24 | O=C(Nc1ccccc1-c1ccc(F)c(F)c1)c1nccnc1C(F)F [4-21] | 10 (100% in protective value) |  | 10 (100% in protective value) | controlling effect assessed according to the criteria of judgment [4, 6]: 10 (100% in protective value); controlling effect assessed according to the criteria of judgment [2, 6]: 10 (100% in protective value)
25 | O=C(Nc1ccccc1-c1ccc(Cl)c(Cl)c1)c1nccnc1C(F)F [4-22] | 10 (100% in protective value) |  | 10 (100% in protective value) | controlling effect assessed according to the criteria of judgment [4, 6]: 10 (100% in protective value); controlling effect assessed according to the criteria of judgment [2, 6]: 10 (100% in protective value)
26 | O=C(Nc1ccccc1-c1cccc(C(F)(F)F)c1)c1nccnc1Cl [Compound No. 1-4] | 10 (100% in protective value) |  | 10 (100% in protective value) | 
27 | Cc1nccnc1C(=O)Nc1ccccc1-c1ccc(OC(F)(F)F)cc1 [Compound No. 2-14, N-(4′-trifluoromethoxybiphenyl-2-yl)-3-methyl-pyrazine-2-carboxamide] | 10 (100% in protective value) |  | 10 (100% in protective value) | 
28 | O=C(Nc1ccccc1-c1ccc(Cl)cc1)c1cccnc1Cl [Control Compound C, 2-Chloro-N-(4′-chlorobiphenyl-2-yl)-nicotinamide, reference compound] |  |  | 6 (60 to 69% in protective value) | controlling effect assessed according to the criteria of judgment [4, 6]: 0 (Less than 9% in protective value); controlling effect assessed according to the criteria of judgment [2, 6]: 0 (Less than 9% in protective value)

From patent US8168638B2, “Pyrazinecarboxamide derivatives and plant disease controlling agents containing the same” (Nihon Nohyaku Co., Ltd., priority 2005, dated 2012)
